The values below come from US20200331882A1, “COMPOUND FOR SIMULTANEOUSLY INHIBITING LSD1 AND HDAC TARGETS AND APPLICATION THEREOF” (PEKING UNIVERSITY SHENZHEN GRADUATE SCHOOL, priority 2018, published 2020).

SMILES strings stand for the structures.

Usually IC50 stands for the concentration at which inhibition is half-maximal.

Common to all, as to assay: CellTiter-Glo cell proliferation
Format in all cases: cell-based
Common to all, as to conditions: CTG, 72 hours, read-out: Absolute IC50
Background: In ATP-based viability assays light output follows the ATP content of the culture.

Assay [1] deals with A549. The protocol: (§1) The effect of the present invention compound ZZY-003 on the cell proliferation of 50 cell lines was evaluated by CellTiter-Glo (CTG) method, and the 50% inhibitory concentration was calculated by detecting the cell viability after treatment with different drug concentrations. The cells were resuscitated and cultured in their respective culture media. The cells in logarithmic growth phase were harvested and the cells were counted by cell counter. The cell viability was detected by Trypan blue exclusion method to ensure that the cell line viability was more than 96%. The cell concentration was adjusted by diluting with the culture medium, and 90 μL cell suspension was added to the 96-well cell plate (including the cell control T0 on the day of drug treatment) to make the cell density reach the specified concentration. The cells in the 96-well plate were cultured overnight at 37° C., 5% CO2 and 95% humidity. 10 μL culture medium was added to the control cell culture plate. CellTiter-Glo reagent and cell culture plate were placed at room temperature to balance for 30 minutes. The same volume of CellTiter-Glo reagent was added to each well. Vibrate on the orbital shaker for 2 min to make the cells fully lytic. The cell culture plate was placed at room temperature to balance for 10 minutes. Chemiluminescence values were read with EnVision. The storage solution was formed by dissolving the tested compound with the corresponding solvent and diluted in gradient to obtain 10 times working concentration solution, and 10 times solution of positive drug was also prepared. 10 μL drug solution was added to each well in the 96-well plate in which the cells were inoculated, and each cell concentration was provided with three duplicate wells. […] Chemiluminescence values were read with EnVision. […] Cell survival rate (%)=(Lum drug to be detected−Lum culture medium control)/(Lum cell control−Lum culture medium control)×100%; Lum cell control−Lum culture medium control was set to 100%, LumMedium control value was set to 0%;

Assay [2] deals with MCF7. The method, then: as §1
Assay [3] deals with MDA-MB-231. The method, then: as §1

Consider `N.N.[Cl][Pt][Cl]` [Cisplatin, reference compound], for which the IC50 in assay [1] came out at 7.89 µM; in assay [2], 22 µM; in assay [3], 20.6 µM.
